Measurements: patent US7659073
These are yes or no findings as the source states them, for the method shown. Binding can be weak; no strength is given.

Molecular target: mature PSA (prostate specific antigen) (human)
Experiment: incubation with ACT for two hours at 37° C., HIC-HPLC profile

B1: α1-antichymotrypsin (ACT) (protein, UniProt P01011 24-423, looked up)
chain: HPNSPLDEENLTQENQDRGTHVDLGLASANVDFAFSLYKQLVLKAPDKNVIFSPLSISTALAFLSLGAHNTTLTEILKGLKFNLTETSEAEIHQSFQHLLRTLNQSSDELQLSMGNAMFVKEQLSLLDRFTEDAKRLYGSEAFATDFQDSAAAKKLINDYVKNGTRGKITDLIKDLDSQTMMVLVNYIFFKAKWEMPFDPQDTHQSRFYLSKKKWVMVPMMSLHHLTIPYFRDEELSCTVVELKYTGNASALFILPDQDKMEEVEAMLLPETLKRWRDSLEFREIGELYLPKFSISRDYNLNDILLQLGIEEAFTSKADLSGITGARNLAVSQVVHKAVLDVFEEGTEASAATAVKITLLSALVETRTIVRFNRPFLMIIVPTDTQNIFFMSKVTNPKQA
B1 was tested. Which binding did it give?
The binding was “binds”.
